Experimental data: the supplement of paper PMC3334620
Over roughly 33,000 sequences, “E-score (-0.5 to 0.5)” has its median near -8e-05; the highest 2% begin near 0.23. Some of the results follow.

target: T1, Nrg2 (UniProt P38082); test: PBM E-score (8-mer binding enrichment) (E-score (-0.5 to 0.5)); higher = stronger / more preferred TF binding; conditions: protein concentration: 100 nM; construct: GST-full length
T1 sequence: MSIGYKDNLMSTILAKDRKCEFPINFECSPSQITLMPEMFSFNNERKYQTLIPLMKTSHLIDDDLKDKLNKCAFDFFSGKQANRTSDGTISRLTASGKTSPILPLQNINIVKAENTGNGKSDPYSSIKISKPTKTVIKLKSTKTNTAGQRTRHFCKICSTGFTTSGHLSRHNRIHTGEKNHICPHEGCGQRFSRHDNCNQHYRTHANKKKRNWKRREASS
How it was run: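 Full-length yeast transcription factors or their DNA-binding domains, GST-tagged and expressed with PURExpress, were applied at about 100-200 nM to universal all-10-mer Agilent arrays. These arrays had been made double-stranded by primer extension on fresh or once-stripped slides. Detection used fluorescent anti-GST, normalisation used masliner, and E-scores for ungapped eight-base words pooled with reverse complements came from the Universal PBM Analysis Suite.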

| Sequence | PBM E-score |
| --- | --- |
| AATGGCTC | 0.0798 |
| CGTAGGCA | -0.227 |
| CTAATTGA | 0.0446 |
| CCACAATA | 0.184 |
| ATATTAAC | 0.176 |
| ATAACAAC | 0.175 |
| GCTCGTTA | -0.0636 |
| CAAACGTC | -0.136 |
| CCTAACTC | -0.0633 |
| CTCGGACA | -0.0517 |
| CTCTGCCA | -0.158 |
| GCATACCC | 0.125 |
| AGTTTAAT | 0.0955 |
| AATCTAAG | 0.00034 |
| TCTTGGCA | -0.00105 |
| AAACCGCT | -0.107 |
| CCTGAGCC | -0.162 |
| ACATGGTC | 0.0599 |
| CCAACATC | 0.0923 |
| ACACGTCT | -0.192 |
| AAACGAGC | -0.039 |
| CTACACCA | -0.153 |
| CTTGTACA | -0.218 |
| ATTCACCA | -0.0677 |
| CGTTCTGC | 0.203 |

Some of the entries so far, with each value named:
AATGGCTC
  PBM E-score = 0.0798
CTCGGACA
  PBM E-score = -0.0517
CTCTGCCA
  PBM E-score = -0.158

The list continues:

| Sequence | PBM E-score |
| --- | --- |
| CTCGGCAC | 0.0273 |
| ACGTGTGG | -0.109 |
| AAGGCTAC | -0.0541 |
| AGTTGTGG | 0.156 |
| ACCAAGCC | -0.0984 |
| CCCAGAAA | 0.0848 |
| TAGCCGGA | 0.0758 |
| GGGCAAAC | 0.0602 |
| GACGCCAA | -0.127 |
| AACGACAG | -0.0361 |
| GAAGAGTA | 0.0187 |
| CGGGAACA | 0.0862 |
| CCAAGCTA | 0.0116 |
| AAATAGAG | -0.0562 |
| CCGATTTA | 0.0969 |
| ACCTAAGA | 0.0161 |
| AGGAATAA | 0.115 |
| ATACCATG | -0.0769 |
| ACAAATCT | 0.0536 |
| GGCTCGCA | 0.0356 |
| ACCCTGCC | 0.0806 |
| GCACAATA | -0.0537 |
| ATTGGAAG | -0.113 |
| ATGTATCC | 0.0124 |
| GATGCGAA | 0.06 |

| Sequence | PBM E-score |
| --- | --- |
| TGTCGAAA | -0.00208 |
| GGCAATAA | 0.048 |
| CTCCTGCC | -0.171 |
| AGAAACTG | 0.0813 |
| CGAACTGC | -0.0594 |
| CGACTTAA | -0.157 |
| ATCTAGTG | -0.0325 |
| AGTAAGGG | 0.233 |
| GGTGGAGA | -0.149 |
| CAATAGTG | -0.0138 |
| CAGATTGA | -0.00691 |
| CTGGTGAC | -0.211 |
| GGAAAGCA | -0.0468 |
| GATCAAGC | -0.0799 |
| AGGGGTGG | 0.0388 |
| CAAGACTG | 0.076 |
| CCGCCAAG | -0.0825 |
| GAGCACCA | -0.0692 |
| CACACGTG | -0.123 |
| CATCCGTA | -0.0267 |
| ACAAGACG | -0.0224 |
| CGCCTGGC | -0.199 |
| CGATGCCC | -0.103 |
| AATTGGAA | 0.0257 |
| CGGTGCGA | -0.168 |

| Sequence | PBM E-score |
| --- | --- |
| ATTGGAGA | 0.16 |
| CCAGACGG | -0.254 |
| ACAACTCA | 0.189 |
| AGGCTATC | -0.133 |
| GTACTCAA | 0.0912 |
| ACGTGGGA | -0.166 |
| AATTCGAT | 0.0692 |
| AGAGGTTA | -0.0297 |
| AATCACCG | 0.118 |
| TGCCGAAA | 0.124 |
| CCGCTATA | 0.0143 |
| AATAGGAA | 0.0574 |
| GTAGCCAA | -0.104 |
| CGCTGGCC | -0.252 |
| CCAGAGAG | -0.0955 |
| AGCAGCTG | 0.0638 |
| CGAGAGTA | 0.0862 |
| AGTATAAG | 0.0425 |
| CGACAGTC | -0.249 |
| GTAGGCGA | 0.0848 |
| AAACCGTT | -0.0711 |
| ATAAGATA | 0.161 |
| CAGTGTGC | -0.125 |
| ACACTCCG | -0.0613 |
| CAGAGTGA | 0.00026 |

| Sequence | PBM E-score |
| --- | --- |
| AGGATGGC | -0.00026 |
| AAGACCAC | -0.24 |
| CTCATTGA | -0.0879 |
| AACTCGAT | 0.097 |
| CGATAACG | -0.12 |
| CATGCATC | -0.00044 |
| ACCAAAAT | 0.0735 |
| CTCAAGTA | -0.0154 |
| ACCCCCCC | -0.487 |
| ACCCCGGC | -0.119 |
| CAGATACA | 0.0962 |
| GATAACGC | 0.102 |
| AGGCCAGC | -0.0664 |
| CCTGCGGA | -0.0208 |
| CAACATCA | 0.219 |
| TAGGTACA | -0.115 |
| CGCTGCCA | -0.203 |
| AGCAGACG | 0.0994 |
| ACGTTTAT | 0.00747 |
| CCACGATC | 0.0804 |
| GTCTTTGA | -0.193 |
| GATGAGGA | -0.0383 |
| TATAGACA | 0.0604 |
| GTATGAAA | 0.0865 |
| ATTCGAGC | 0.0426 |

Looked up one by one from the entries so far:

| Sequence | PBM E-score |
| --- | --- |
| CTCAAGTA | -0.0154 |
| TAGGTACA | -0.115 |
| GAGCACCA | -0.0692 |

(next part)

| Sequence | PBM E-score |
| --- | --- |
| AGGCGTTC | -0.0836 |
| GGATTGAA | 0.0664 |
| GGGGGTAA | -0.374 |
| GGGGGGGA | -0.446 |
| AAGTAACG | 0.0587 |
| ACAGGGTA | 0.349 |
| AAGTTAGT | 0.021 |
| AACTACTG | 0.0512 |
| CACGAGTA | 0.121 |
| GGGGACAA | 0.0829 |
| TCACATGA | -0.129 |
| GAATACGA | 0.0569 |
| AGTTGCGC | 0.0828 |
| ATAGACAA | 0.17 |
| ATGGATAG | -0.0889 |
| AACAGGGT | 0.211 |
| CCCCTGCC | 0.0503 |
| ACATGGCT | -0.0984 |
| ATGGATTA | -0.14 |
| AGTTGGTG | 0.0201 |
| CCTCATAA | -0.131 |
| ACAACCAC | -0.0501 |
| CCACCGGA | -0.0356 |
| GCGGCGAC | 0.0679 |
| ATCATTGC | -0.0784 |

| Sequence | PBM E-score |
| --- | --- |
| TGATACCA | 0.0617 |
| AGACAAGC | 0.0792 |
| CTTCGGAC | 0.0444 |
| CGTAGCAC | 0.0106 |
| AAACGCTC | -0.257 |
| AAATCGAC | 0.237 |
| TCGATGCA | 0.0441 |
| GAGAGATC | 0.0983 |
| AATTGGGT | 0.26 |
| CTGACGTC | 0.0649 |
| ATCGCCCA | -0.111 |
| AGCCGGCG | -0.0749 |
| GTAGAGCA | -0.216 |
| TCCGTAAA | -0.0349 |
| ACACGACA | 0.127 |
| ACAACGAT | -0.0519 |
| CCCTCGGA | 0.0471 |
| CAGGCCGA | 0.0757 |
| CGACCCAG | 0.0561 |
| CTTCTCAC | 0.0533 |
| CCTCGCAC | 0.0531 |
| TCTGACCA | 0.216 |
